## Screening data, single-dose tests

Sequences of proteins named here, by UniProt entry; tags and fusion partners are left off. Residues count along the entry.
UniProt Q4DA54, 1-478: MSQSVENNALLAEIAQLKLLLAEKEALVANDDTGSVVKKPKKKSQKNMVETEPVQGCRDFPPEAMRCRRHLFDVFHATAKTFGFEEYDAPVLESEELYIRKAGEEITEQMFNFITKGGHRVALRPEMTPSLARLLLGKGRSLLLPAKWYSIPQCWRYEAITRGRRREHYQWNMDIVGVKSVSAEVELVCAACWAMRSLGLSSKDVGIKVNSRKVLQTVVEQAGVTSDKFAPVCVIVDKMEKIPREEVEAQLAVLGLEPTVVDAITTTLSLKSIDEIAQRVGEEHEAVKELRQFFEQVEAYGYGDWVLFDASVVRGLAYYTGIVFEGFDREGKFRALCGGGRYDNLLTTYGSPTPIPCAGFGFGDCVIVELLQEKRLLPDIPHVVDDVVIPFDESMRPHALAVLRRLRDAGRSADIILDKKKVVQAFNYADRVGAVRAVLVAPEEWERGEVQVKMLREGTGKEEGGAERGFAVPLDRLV
UniProt A4I591, 1-473: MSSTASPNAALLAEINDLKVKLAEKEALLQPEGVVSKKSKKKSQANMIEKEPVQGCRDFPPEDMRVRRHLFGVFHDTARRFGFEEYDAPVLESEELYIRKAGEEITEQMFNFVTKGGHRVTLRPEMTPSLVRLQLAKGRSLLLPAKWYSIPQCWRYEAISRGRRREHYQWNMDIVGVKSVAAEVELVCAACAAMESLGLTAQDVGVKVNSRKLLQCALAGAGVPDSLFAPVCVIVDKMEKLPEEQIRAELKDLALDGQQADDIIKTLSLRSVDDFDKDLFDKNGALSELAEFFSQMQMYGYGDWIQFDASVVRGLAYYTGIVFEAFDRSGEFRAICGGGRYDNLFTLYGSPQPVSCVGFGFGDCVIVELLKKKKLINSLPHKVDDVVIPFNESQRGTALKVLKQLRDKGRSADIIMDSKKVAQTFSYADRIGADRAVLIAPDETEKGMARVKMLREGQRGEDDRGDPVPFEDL
UniProt Q8IDJ8, 1-583: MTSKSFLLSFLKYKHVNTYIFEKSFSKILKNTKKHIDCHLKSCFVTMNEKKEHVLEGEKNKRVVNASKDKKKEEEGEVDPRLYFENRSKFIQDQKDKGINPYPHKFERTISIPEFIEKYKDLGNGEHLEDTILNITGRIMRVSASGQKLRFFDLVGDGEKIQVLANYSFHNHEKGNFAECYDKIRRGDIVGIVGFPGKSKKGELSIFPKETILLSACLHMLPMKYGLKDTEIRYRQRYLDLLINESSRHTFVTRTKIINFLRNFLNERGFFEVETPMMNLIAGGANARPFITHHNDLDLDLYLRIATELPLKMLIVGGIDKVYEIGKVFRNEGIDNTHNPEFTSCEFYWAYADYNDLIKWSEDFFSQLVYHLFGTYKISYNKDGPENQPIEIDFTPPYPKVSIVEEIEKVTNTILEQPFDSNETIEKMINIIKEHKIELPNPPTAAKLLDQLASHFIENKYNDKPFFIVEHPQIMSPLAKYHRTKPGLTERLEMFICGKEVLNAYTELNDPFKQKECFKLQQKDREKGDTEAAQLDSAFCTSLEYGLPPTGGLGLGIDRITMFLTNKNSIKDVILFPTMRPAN
UniProt P9WNZ1, whole entry: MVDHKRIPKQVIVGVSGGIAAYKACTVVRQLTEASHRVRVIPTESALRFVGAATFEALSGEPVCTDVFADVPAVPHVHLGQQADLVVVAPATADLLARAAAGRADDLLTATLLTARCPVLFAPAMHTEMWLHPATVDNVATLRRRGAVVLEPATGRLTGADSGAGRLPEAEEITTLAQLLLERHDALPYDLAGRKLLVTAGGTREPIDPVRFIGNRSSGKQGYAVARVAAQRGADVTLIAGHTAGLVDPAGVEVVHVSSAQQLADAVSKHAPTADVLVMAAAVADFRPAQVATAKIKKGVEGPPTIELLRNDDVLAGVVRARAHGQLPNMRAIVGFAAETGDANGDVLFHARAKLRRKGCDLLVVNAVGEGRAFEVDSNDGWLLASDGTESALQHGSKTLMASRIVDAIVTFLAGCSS

The values are deposited in ChEMBL (CHEMBL3988442, “University of Dundee, Small-Polar-MMV Screening Library” (2021)).

A: 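Enzyme assay of histidyl-tRNA synthetase; the read-out is not stated. Target: Histidine-tRNA ligase, Trypanosoma cruzi CL Brener (UniProt Q4DA54). Tested at 30 µM. The record gives no direction; compounds that gave an IC50 in retests scored well above the rest, so higher reads as stronger inhibition. Size under these conditions: about 69,000 compounds, about 31 of them at 50% or above in at least one test.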
B: 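Histidine-tRNA ligase, Leishmania infantum (UniProt A4I591). Enzyme assay of histidyl-tRNA synthetase; the read-out is not stated. Concentration: 30 µM. Direction is inferred from retests: higher values go with stronger inhibition. The assay is labelled LdHisRS but filed under L. infantum. Size under these conditions: about 69,000 compounds, about 410 of them at 50% or above in at least one test.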
C: 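Assay of Toxoplasma gondii numbers, read through their beta-galactosidase reporter with a colour substrate. Concentration: 10 µM. The record gives no direction; the compounds picked for IC50 retests had high values, so higher reads as fewer parasites. Size under these conditions: about 67,000 compounds, about 260 of them at 50% or above in at least one test.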
D: 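Enzyme assay of the cytosolic lysyl-tRNA synthetase in 384-well plates, read by luminescence. Target: Lysine-tRNA ligase, Plasmodium falciparum 3D7 (UniProt Q8IDJ8). Tested at 30 µM. Direction is inferred from only a few compounds that gave an IC50; most scored high, so higher reads as stronger inhibition. Size under these conditions: about 69,000 compounds, about 49 of them at 50% or above in at least one test.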
E: 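Enzyme assay of CoaBC with a phosphate dye (Biomol Green) read at 650 nm. Target: Coenzyme A biosynthesis protein CoaBC, Mycobacterium tuberculosis (UniProt P9WNZ1). Compounds at 30 µM. Direction is inferred from only a few compounds that gave an IC50; most scored high, so higher reads as stronger inhibition. Most strong results did not repeat in a second test. Size under these conditions: about 67,000 compounds, about 40 of them at 50% or above in at least one test.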

Values are the deposited “Percent Effect”, in %.
The controls that fix the scale are not given in the record; negative values are as filed.
Compounds were drawn at random from those tested, without regard to their results.

With CC(=O)Nc1ccc2nc(-c3nccn3CC(C)(C)CO)ccc2c1 the screen gave A: -0.578%; B: 10.64%; C: -7.076%; D: 1.361%; E: 0.7444%. For Cc1cc(C(=O)N2C[C@@H](CN3CCCCC3)[C@@H](CO)C2)ccc1O the result was A: 6.704%; B: 9.375%; C: 7.777%; D: 1.09%; E: 1.542%. CCCn1cc(-c2cc(-c3cc(CC)n[nH]3)c(C#N)c(N)n2)c(C)n1 read A: 12%; B: 19.67%; C: -37.7%; D: 3.469%; E: 6.71%. With CCC(CNC(=O)c1ccccc1OC)N1CCc2ccccc2C1 (centres undefined) the screen gave A: -11.82%; B: 17.81%; C: 2.276%; D: 5.368%; E: 5.449%. Cc1cc(C)c(CNC(=O)N2CCN(c3ccncc3)CC2)c(=O)[nH]1 read A: 2.353%; B: 0%; C: -15.74%; D: 0.5604%; E: 4.859%. With N#Cc1c(F)cccc1N1CCC(NS(=O)(=O)c2cccs2)CC1 the screen gave A: 0%; B: 3.846%; C: -0.6568%; D: 1.658%; E: -13.43%. CCCC(C)C(=O)N1CCC(n2cccc2C(=O)OC)CC1 (centres undefined) read A: 6.464%; B: 3.125%; C: -3.671%; D: 4.149%; E: -0.527%.

With COCCN1C[C@@H]2[C@@H](OC)CCN(Cc3ccco3)[C@@H]2C1 the screen gave A: -12.28%; B: 17.74%; D: 6.505%; E: 0.8631%. O=C(C1CCCC1)N1CC2(CCNC2)OCc2ccccc21 (centres undefined) gave A: 5.325%; B: 8.276%; C: 7.676%; D: 3.408%; E: 6.579%. With CCc1nsc(N2CCn3c(nnc3-c3ccccc3)C2)n1 the screen gave A: 10.34%; B: 15.18%; C: 5.841%; D: 6.941%; E: 5.556%. COCCN1CC=C(c2cccc(OC)c2)CC1 gave A: 1.587%; B: 2.74%; C: -2.147%; D: -0.6995%; E: 4.339%. Result for [H][C@]12CN(Cc3cccnc3)C[C@@]1([H])S(=O)(=O)CC[C@@H]2C(=O)NCC(C)C was C: 11.29%. Result for CCOc1cccc(C(=O)Nc2ccn(CC)n2)c1 was A: 1.339%; B: 13.58%; C: -5.492%; D: 4.87%; E: 3.571%. For CN(C)C1CC2(CCN(C(=O)c3csnn3)CC2)c2ccccc21.O=C(O)C(F)(F)F (centres undefined) the result was C: -1.408%.

For N#Cc1ccc(S(=O)(=O)NCCn2ccnc2)cc1Cl the result was A: 1.724%; B: 34.21%; C: -1.23%; D: 9.043%; E: 0.1965%. For Cc1c(C(=O)N2CCCC2c2cnn(C)c2)cnn1-c1ccccc1 (centres undefined) the result was A: 4.07%; B: 12.5%; C: -24.32%; D: 2.567%; E: 12.5%.

Repeated from the top, 2 entries:

With CC(=O)Nc1ccc2nc(-c3nccn3CC(C)(C)CO)ccc2c1 the screen gave A: -0.578%; B: 10.64%; C: -7.076%; D: 1.361%; E: 0.7444%.
With Cc1cc(C(=O)N2C[C@@H](CN3CCCCC3)[C@@H](CO)C2)ccc1O the screen gave A: 6.704%; B: 9.375%; C: 7.777%; D: 1.09%; E: 1.542%.